The values that follow come from PubChem BioAssay AID2685 (National Center for Advancing Translational Sciences (NCATS), 2010).

A short description of this test: qHTS Assay for Lipid Storage Modulators in Drosophila S3 Cells.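 On cell number change: cells counted by Cell Tracker Red CMTPX staining in the red channel.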 Particulars: BODIPY lipid droplet fluorescence, 18-24 h; for cell number change: measured here: cell count max response, cells fed with added oleic acid. Summed up: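 Laser-scanning cytometry quantifies lipid droplet accumulation (500–530 nm total intensity; droplet/cell object ratio) in oleic acid-fed (400 uM added) Drosophila S3 cells treated with a concentration series. 20 uM Triacsin C defined 100% inhibition.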

The mark [1] stands for this setting: measured here: lipid fluorescence (Fed channel) AC50, cells fed with added oleic acid.
[2] abbreviates: measured here: cell number channel AC50, cells fed with added oleic acid.

The other results are listed elsewhere or left out. The main result of the screen is listed elsewhere. These columns were measured beside it and carry no call. Most of these compounds were active or inconclusive in the main read-out, so they are no random draw. Words in brackets tell the shape of the fitted curve; partial curves, single points and poor fits give uncertain potencies.

As to `CC(Nc1ccccc1)c1cccnc1` (stereo not given), the cell number change was determined as 10.3%. Under setting [1], the AC50 is 0.366 µM [rising, full curve, poor fit].
As to `Cc1cc(Cn2nc(-c3ccccc3)cc2C(=O)NCc2cccc(Br)c2)on1`, the cell number change is -20%. Under setting [1], the AC50 was 29.1 µM [falling, single point].
`CC(=O)c1cccc(NC(=O)C2C3CCC(C3)C2C(=O)O)c1` (stereo not given): the cell number change was -6.32%. Besides, the AC50 under setting [1] was 20.6 µM [rising, single point].
Regarding `Cc1c(C(=O)NC(=S)Nc2ccc(NC(=O)c3cccs3)cc2)oc2ccccc12`, the cell number change was -16.1%. Moreover, under setting [1], the AC50 was 2.06 µM [falling, full curve].
As to `CCC(=O)NC(=S)NNC(=O)c1ccc(NC(=O)c2ccccc2)cc1`, the cell number change is -32.2%. Besides, the concentration at half-maximal activity (AC50) under setting [2] is 23.1 µM [falling, single point].
Consider `Cc1cccc(-c2ccc3ncnc(NCc4cccs4)c3c2)c1`, for which the cell number change was -18.4%.
For the molecule `CC(=O)Nc1ccccc1NC(=O)CC(C)(C)C`, the cell number change was -111%. Besides, the concentration at half-maximal activity (AC50) under setting [2] is 23.1 µM [falling, partial curve].
As for `CCCn1nc(C(=O)Nc2nc(-c3ccccn3)cs2)c2ccccc2c1=O`, the cell number change was 6.86%.
Regarding `Cc1cc(NC2CCCCC2)nc(NCc2ccccc2)n1`, the cell number change was -78.6%. For the same molecule, the AC50 under setting [2] is 20.6 µM [falling, single point]. Under setting [1], the concentration at half-maximal activity (AC50) is 23.1 µM [falling, single point].
In the case of `CCOc1ccc(NS(=O)(=O)c2ccc(C(=O)N(C)Cc3cccc(OC)c3OC)cc2)cc1`, the cell number change was -30.3%. In addition, under setting [2], the AC50 is 14.6 µM [falling, single point]. For the same molecule, the AC50 under setting [1] was 29.1 µM [falling, single point].
As to `CCN(CC)CCNC(=O)c1cn(CC)c2ccc(S(=O)(=O)N(C)C)cc2c1=O`, the cell number change was -38%. Besides, under setting [2], the AC50 is 0.146 µM [falling, full curve]. For the same molecule, the AC50 under setting [1] was 3.66 µM [falling, full curve].
As for `Cc1ccccc1NC(=O)NC(N)=O`, the cell number change was -0.956%. Further, the AC50 under setting [1] is 20.6 µM [rising, partial curve].
Consider `COc1ccc(CCNC(=O)C(NS(=O)(=O)c2cccc3nsnc23)C(C)C)cc1OC` (stereo not given), for which the cell number change was 24.1%. Also, the AC50 under setting [1] is 16.4 µM [falling, partial curve].
As to `CCC(C)c1ccc(NC(=O)c2[nH]c(C)c(C(C)=O)c2C)cc1` (stereo not given), the cell number change was determined as 5.86%. For the same molecule, the AC50 under setting [1] is 0.164 µM [falling, full curve].
In the case of `N#Cc1cccc(NC(=O)NCCc2c[nH]c3ccccc23)c1`, the cell number change is 15.4%. Further, the AC50 under setting [1] is 3.66 µM [rising, partial curve].
Turning to `O=C(O)c1ccc(S(=O)(=O)N2CCC3(CC2)CC(=O)c2ccccc2O3)cc1`, the cell number change stood at 23.6%.
For the molecule `COc1ccc(CCNC(=O)C2CCN(c3ccc(N4CCOCC4)nn3)CC2)c(OC)c1`, the half-maximal activity concentration (AC50) under setting [2] was 4.61 µM [falling, partial curve, poor fit].
As for `CCN(CC)CCn1cnc2c([nH]c3cccc(OC)c32)c1=O`, the cell number change was -36.4%. Besides, under setting [2], the AC50 was 3.26 µM [falling, full curve]. Also, the AC50 under setting [1] was 3.66 µM [falling, full curve].
For `COC(=O)CNC(c1ccccc1)c1cc(C)ccc1NC(=O)CNC(=O)OCc1ccccc1` (stereo not given), the AC50 is 1.64 µM [rising, partial curve] under setting [2] and 0.184 µM [falling, full curve, poor fit] under setting [1].
With `O=C(NC1CCCC1)c1ccc(COCC(F)(F)C(F)F)o1`, the cell number change is -21%. Besides, the concentration at half-maximal activity (AC50) under setting [2] was 1.16 µM [falling, full curve, poor fit]. Under setting [1], the AC50 was 0.00731 µM [falling, full curve].
Regarding `O=C(NCc1ccccc1Cl)NC(=O)c1csc([N+](=O)[O-])c1`, the AC50 under setting [1] was 4.11 µM [rising, partial curve, poor fit].
Consider `CCCNC(=O)COC(=O)/C=C/c1ccco1`, for which the cell number change is 6.89%. Also, the AC50 under setting [1] is 20.6 µM [rising, partial curve, poor fit].
As to `O=C(Nc1sc2c(c1C(=O)c1ccccc1)CCCC2)c1cccnc1`, the cell number change was 39.8%. The AC50 under setting [2] is 10.3 µM [rising, partial curve].
On to `CCN(CC)CCCN1C(=O)C(=O)/C(=C(/O)c2cc(C)ccc2C)C1c1cccnc1` (stereo not given), for which the cell number change is -3.09%. In addition, the AC50 under setting [2] was 0.411 µM [falling, full curve, poor fit]. Further, the AC50 under setting [1] was 0.00461 µM [falling, full curve, poor fit].
Take `O=S(=O)(c1ccccc1F)N1CCN(C(=S)NCc2ccccc2)CC1`: the cell number change came to 46%. Under setting [2], the half-maximal activity concentration (AC50) was 9.2 µM [rising, partial curve].
As to `CSc1nnc(-c2cccs2)n1-c1ccccc1`, the cell number change is -0.219%.
Take `COc1ccc(C(=O)COC(=O)/C=C/c2ccccc2)c(OC)c1`: the cell number change is 3.62%. Further, under setting [1], the AC50 is 6.51 µM [rising, single point].
Regarding `COc1ccccc1NS(=O)(=O)c1cccc(NC(=O)c2ccc3ccccc3n2)c1`, the cell number change is -21.1%. Besides, the concentration at half-maximal activity (AC50) under setting [1] was 29.1 µM [falling, single point].
In the case of `O=C1C(=O)N(Cc2cccs2)c2ccccc21`, the cell number change is -22%.
Consider `O=C(CSc1nc2[nH]c(=O)cc(O)c2s1)Nc1nccs1`, for which the cell number change is -1.43%. Moreover, the AC50 under setting [1] was 3.66 µM [rising, single point].
For the molecule `Cc1ccc(C(=O)NC(=S)Nc2ccc(S(=O)(=O)N(C)c3ccccc3)cc2)cc1`, the cell number change was determined as 9.81%. The AC50 under setting [1] is 20.6 µM [rising, partial curve].
Take `O=C(c1ccncc1)N1N=C(c2ccc(Cl)cc2)CC1c1ccccc1O` (stereo not given): the cell number change came out at 0.427%. Besides, the AC50 under setting [2] was 6.51 µM [rising, single point]. In addition, under setting [1], the AC50 was 16.4 µM [rising, partial curve].
Take `CCOc1ccc(Nc2nc(Cc3nnc(SCC(=O)c4ccc(C)cc4)o3)cs2)cc1`: the AC50 by setting is: under setting [2], 0.92 µM [rising, full curve]; under setting [1], 6.51 µM [rising, single point].
Turning to `C=CCn1c(SCc2ccc(F)cc2)nnc1-c1sc2nc(C)cc(C)c2c1N`, the concentration at half-maximal activity (AC50) under setting [1] was 0.82 µM [rising, full curve].
Turning to `CNC(=O)C(C)Sc1ccc(S(=O)(=O)N2CCOCC2)cn1` (stereo not given), the cell number change is -13.3%. Further, under setting [1], the AC50 was 29.1 µM [falling, single point].
In the case of `CCOc1ccc(C(=O)NN2C(=S)NC(C)(C)C=C2C)cc1`, the cell number change was -35.2%. Moreover, the concentration at half-maximal activity (AC50) under setting [1] is 6.51 µM [rising, single point].
With `Cc1ccc(CN2CC34C=CC(O3)C(C(=O)NCc3ccco3)C4C2=O)cc1` (stereo not given), the cell number change was found to be 44.8%. In addition, the AC50 under setting [2] was 29.1 µM [rising, single point].
In the case of `CC1CN(CCCSc2ccc(Cl)cc2)CC(C)O1` (stereo not given), the cell number change was 5.58%.
On the same count and under the same terms, the result for `CCC1CCCCN1S(=O)(=O)c1ccc(NC(=O)C2CCN(C(=O)c3ccco3)CC2)cc1` (stereo not given) reads 5.13%.
